Record: PubChem BioAssay AID504793 (Drosophila RNAi Screening Center, 2011)

Aim: 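Genes required for cells to halt at G2/M after double-strand DNA breaks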 (primary screen)
System: Drosophila S2R+ cells
Reagents: long dsRNA against Drosophila genes, about 0.25 µg dsRNA per well
Duration: 4 days of dsRNA, then 4 hours of drug before read-out
Conditions: doxorubicin 0.5 µM for 4 hours to cause double-strand breaks, in cells also given a low, harmless dose of dsRNA against nbs to sensitise the assay
Read-out: 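Mitotic index as the number of phospho-histone H3-positive cells in each well following doxorubicin, given as raw counts without normalisation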
Scale: mitotic cells: higher = more cells in mitosis, weaker G2 arrest
Active means: 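Genes are called active only when high mitotic counts were reproduced with independent dsRNAs and mitosis was checked for delay without damage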
Calls: active = confirmed in follow-up tests; inactive = not confirmed
In all, the deposit lists about 23,000 reagents; below is an unselected part of those that have a named target and a result. In the full data, 62 (0.27%) got an active call. 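Calls come from follow-up tests whose scores are not deposited, so confirmed genes may have low counts here; counts are not normalised per plate.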 Raw values are not corrected between plates. Unmarked entries are inactive.

target gene | amplicon | mitotic cells, replicate 1 | mitotic cells, replicate 2
CG13601 | DRSC14604 | 7 | –
CG18549 | DRSC15347 | 8 | –
CG18549 | DRSC28847 | 5 | –
Eglp1 | DRSC04502 | 9 | –
CG6602 | DRSC10673 | 2 | –
mago | DRSC04703 | 6 | –
tbc | DRSC20540 | 2 | –
tbc | DRSC23084 | 15 | –
tbc | DRSC29058 | 11 | –
CG5721 | DRSC06945 | 4 | –
RhoU | DRSC17803 | 11 | –
RhoU | DRSC17804 | 13 | 11
RhoU | DRSC22159 | 11 | –
RhoU | DRSC22396 | 7 | –
RhoU | DRSC25197 | 8 | –
RhoU | DRSC28919 | 5 | –
slgA | DRSC20586 | 4 | –
slgA | DRSC27543 | 6 | –
Cpr62Ba | DRSC08403 | 8 | –
Sin1 | DRSC05965 | 6 | –
CG14096 | DRSC26975 | 3 | –
Tim17a2 | DRSC12252 | 1 | –
Tim17a2 | DRSC23837 | 2 | –
CG1801 | DRSC20556 | 8 | –
DIP-iota | DRSC02140 | 8 | –
DIP-iota | DRSC23965 | 10 | –
ng3 | DRSC18804 | 21 | –
ng3 | DRSC25323 | 14 | –
Ugt37C2 | DRSC02247 | 8 | –
CG14926 | DRSC02409 | 14 | –
CG7430 | DRSC10845 | 10 | –
blo | DRSC05937 | 2 | –
blo | DRSC27060 | 7 | –
pasi1 | DRSC16299 | 3 | 14
pasi1 | DRSC22385 | 14 | –
pasi1 | DRSC26688 | 3 | –
Mal-A8 | DRSC07234 | 10 | –
grass | DRSC15911 | 12 | –
CG3625 | DRSC00621 | 8 | –
CG7378 | DRSC20041 | 10 | –
tipE | DRSC08738 | 2 | –
tipE | DRSC29985 | 6 | –
Tengl1 | DRSC00481 | 1 | –
CG9021 | DRSC03128 | 7 | –
M7BP | DRSC05932 | 7 | –
AstA-R1 | DRSC17278 | 9 | –
AstA-R1 | DRSC17727 | 3 | –
meru | DRSC09400 | 17 | –
meru | DRSC10215 | 2 | –
cher | DRSC16924 | 3 | –
cher | DRSC27625 | 2 | –
hoe2 | DRSC00459 | 2 | –
Scamp | DRSC20286 | 15 | –
Scamp | DRSC29752 | 3 | –
hpRNA:CR33940 | DRSC39118 | 7 | –
Scp1 | DRSC20799 | 13 | –
Scp1 | DRSC20803 | 49 | –
Scp1 | DRSC20806 | 2 | –
bma | DRSC09896 | 5 | –
bma | DRSC10164 | 3 | –
bma | DRSC28408 | 4 | –
CG14506 | DRSC14858 | 18 | –
CG12853 | DRSC06193 | 5 | –
CG12853 | DRSC27193 | 11 | –
dysc | DRSC10273 | 12 | –
dysc | DRSC11040 | 6 | –
dysc | DRSC22334 | 14 | –
dysc | DRSC22824 | 8 | –
dysc | DRSC26188 | 7 | –
CG31337 | DRSC12981 | 6 | –
Rbfox1 | DRSC09034 | 12 | –
Rbfox1 | DRSC21378 | 7 | –
Rbfox1 | DRSC22992 | 16 | –
Rbfox1 | DRSC25775 | 7 | –
CG2256 | DRSC18220 | 11 | –
CG2256 | DRSC28187 | 5 | –

Ordered by “mitotic cells, replicate 1” (low to high): 13 of the entries above.
target gene | amplicon | mitotic cells, replicate 1 | mitotic cells, replicate 2
blo | DRSC05937 | 2 | –
tipE | DRSC08738 | 2 | –
pasi1 | DRSC16299 | 3 | 14
pasi1 | DRSC26688 | 3 | –
tipE | DRSC29985 | 6 | –
blo | DRSC27060 | 7 | –
CG3625 | DRSC00621 | 8 | –
CG7430 | DRSC10845 | 10 | –
Mal-A8 | DRSC07234 | 10 | –
CG7378 | DRSC20041 | 10 | –
grass | DRSC15911 | 12 | –
CG14926 | DRSC02409 | 14 | –
pasi1 | DRSC22385 | 14 | –
